Results on six molecules are retold here after patent US20180219160A1, “BENZOBIS(THIADIAZOLE) DERIVATIVE, INK COMPRISING THE SAME, AND ORGANIC ELECTRONIC DEVICE USING THE SAME” (UBE INDUSTRIES, LTD., priority 2014, published 2018).

The data set in a line: Organic TFT (bottom gate-top contact) transfer characteristics / field-effect mobility. To be noted: for semiconductor characteristics of the organic TFT (n-type / p-type): transfer characteristics, drain voltage 20-100 V as in each Example E, no p-type characteristics.
Setting [1] is: bare substrate, spin-coating 0.1 wt % in chloroform under nitrogen, heated 180° C. 35 min, drain voltage 100 V.
[2] abbreviates: PVP substrate, spin-coating 0.1 wt % in chloroform under nitrogen, heated 180° C. 35 min, drain voltage 80 V.
The mark [3] stands for this setting: bare substrate, spin-coating 0.1 wt % in chloroform under nitrogen, heated 180° C. 35 min, drain voltage 80 V.

Each structure is given as a SMILES string. Some entries repeat one wording, which the source may state once for all of them.

Take `CCCCCCN1C(=O)c2cc(-c3c4c(c(-c5cc6c(s5)C(=O)N(CCCCCC)C6=O)c5nsnc35)N=S=N4)sc2C1=O` [Compound (12-6)]: the “semiconductor characteristics of the organic TFT (n-type / p-type)” value is “n-type semiconductor characteristics”. Also, the field-effect mobility (PVP substrate, spin-coating 0.1 wt % in chloroform in the atmosphere, heated 180° C. 35 min, drain voltage 80 V) is 6.3×10^−1 cm^2/Vs. Moreover, for the setting “PVP substrate, spin-coating 0.1 wt % in chloroform under nitrogen, heated 120° C. 35 min, drain voltage 100 V”, the field-effect mobility was 2.9×10^−1 cm^2/Vs. The field-effect mobility (as Example E-1b (bare substrate, 0.2 wt % in chloroform), after organic TFT left in the atmosphere for 28 days) is 3.9×10^−1 cm^2/Vs. In addition, under “bare substrate, spin-coating 0.1 wt % in chloroform in the atmosphere, heated 120° C. 35 min, drain voltage 100 V”, the field-effect mobility is given as 3.2×10^−1 cm^2/Vs. Also, the field-effect mobility under setting [1] is 3.9×10^−1 cm^2/Vs. The field-effect mobility (bare substrate, spin-coating 0.2 wt % in chloroform under nitrogen, heated 180° C. 35 min, drain voltage 100 V) was 3.6×10^−1 cm^2/Vs.
For `CCCCCCCCN1C(=O)c2cc(-c3c4c(c(-c5cc6c(s5)C(=O)N(CCCCCCCC)C6=O)c5nsnc35)N=S=N4)sc2C1=O` [Compound (12-8)], the “semiconductor characteristics of the organic TFT (n-type / p-type)” value is reported as “n-type semiconductor characteristics”. The field-effect mobility under setting [2] was 9.6×10^−1 cm^2/Vs. Also, the field-effect mobility (bare substrate, spin-coating 0.1 wt % in chloroform in the atmosphere, heated 180° C. 35 min, drain voltage 100 V) is reported as 8.3×10^−1 cm^2/Vs. The field-effect mobility under setting [3] is 1.0×10^0 cm^2/Vs.
`CCCCCCCCCCCCN1C(=O)c2cc(-c3c4c(c(-c5cc6c(s5)C(=O)N(CCCCCCCCCCCC)C6=O)c5nsnc35)N=S=N4)sc2C1=O` [Compound (12-12)]: the “semiconductor characteristics of the organic TFT (n-type / p-type)” value is given as “n-type semiconductor characteristics”. In addition, under “PVP substrate, spin-coating 0.1 wt % in chloroform under nitrogen, heated 150° C. 35 min, drain voltage 100 V”, the field-effect mobility was 6.2×10^−1 cm^2/Vs. Besides, under setting [1], the field-effect mobility was 7.3×10^−1 cm^2/Vs.
Consider `CCCCC(CC)CN1C(=O)c2cc(-c3c4c(c(-c5cc6c(s5)C(=O)N(CC(CC)CCCC)C6=O)c5nsnc35)N=S=N4)sc2C1=O` (centres unmarked) [Compound (12-EH)], for which the “semiconductor characteristics of the organic TFT (n-type / p-type)” value is given as “n-type semiconductor characteristics”. Under setting [2], the field-effect mobility is 2.0×10^−1 cm^2/Vs. In addition, the field-effect mobility under setting [3] is 5.7×10^−1 cm^2/Vs.
As to `O=C1c2cc(-c3c4c(c(-c5cc6c(s5)C(=O)N(CC(F)(F)C(F)(F)C(F)(F)F)C6=O)c5nsnc35)N=S=N4)sc2C(=O)N1CC(F)(F)C(F)(F)C(F)(F)F` [Compound (12-HepFBu)], the “semiconductor characteristics of the organic TFT (n-type / p-type)” value was “n-type semiconductor characteristics”. Where the note is “OTS-modified substrate, vacuum deposition, drain voltage 100 V”, the field-effect mobility was 6.4×10^−3 cm^2/Vs.
For `CN1C(=O)c2cc3cc(-c4c5c(c(-c6cc7cc8c(cc7s6)C(=O)N(C)C8=O)c6nsnc46)N=S=N5)sc3cc2C1=O` [Compound (22-1)], the “semiconductor characteristics of the organic TFT (n-type / p-type)” value is listed as “n-type semiconductor characteristics”. Moreover, under “HMDS-modified substrate, vacuum deposition, drain voltage 100 V”, the field-effect mobility is 3.6×10^−4 cm^2/Vs. For the same molecule, under “PS substrate, vacuum deposition, drain voltage 100 V”, the field-effect mobility is on record as 5.2×10^−4 cm^2/Vs. Moreover, the field-effect mobility (PVP substrate, vacuum deposition, drain voltage 100 V) is 3.6×10^−4 cm^2/Vs.
